Experimental data reported in patent publication US20260258116A1.
No constants are given. Whether binding was seen depends on the method and setting. Binding can be weak; no strength is given.

Experiments:
[1] = target: Pilin (Streptococcus pneumoniae) (Streptococcus pneumoniae); assay: ELISA
[2] = target: Non-structural protein 1 (NSP-1, Dengue virus) (Dengue virus); assay: ELISA
[3] = target: Hemagglutinin (Influenza B) (Influenza B); assay: ELISA
[4] = target: Pilin (Streptococcus pneumoniae) (Streptococcus pneumoniae); assay: figure legend; ELISA
[5] = target: Non-structural protein 1 (NSP-1, Dengue virus) (Dengue virus); assay: figure legend; ELISA
[6] = target: Hemagglutinin (Influenza B) (Influenza B); assay: figure legend; ELISA

Measured: binding

B1: G2-VHH (also referred to as VHH-G2) (VHH)
VHH: QVQLVESGGGLVQPGGSLRLSCAASGFTMGDYAIGWFRQVPGKEREGLSYSTKNGIKAYADSVRDRFTISRENAKNTVYLQMNSLKPEDTAVYYCAASTRFGGLLVSRYDYWGQGTQVTVSS
binds: all assays above
